The target in the assay is Dectin-2 expressed with FcRγ chain on B3Z NFAT-lacZ reporter cells (UniProt Q9JKF4). Description: told in the discussion; rests on NFAT-lacZ Dectin-2 reporter cells.

Protein sequences, listed by entry. Tags and fused reporters are not part of them. Lines headed by an entry give the natural chain unless they say otherwise; changes in a name come on top.
UniProt Q9JKF4: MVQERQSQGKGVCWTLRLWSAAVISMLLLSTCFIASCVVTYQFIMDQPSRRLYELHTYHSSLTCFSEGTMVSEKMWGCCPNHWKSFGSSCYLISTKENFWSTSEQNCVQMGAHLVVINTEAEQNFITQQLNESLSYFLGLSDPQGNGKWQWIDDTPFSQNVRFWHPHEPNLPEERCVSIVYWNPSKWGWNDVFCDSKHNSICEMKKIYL

Results are given in words; binding and its absence hold for the method and conditions named. Some binding calls cover weakened binding; strength is not graded here.

With “Pichia-expressed Aspergillus Eng2 (from UniProt B0XTU6 22-630) (ligand)”, the binding result was “binds”.

These data come from patent US20210205445A1.
